Out of some 350,000 compounds screened, about 220 (0.063%) were called active. This list was built around the results that the source calls inconclusive (neither active nor inactive); the mix of calls is not that of the screen. The call rests on the fitted dose curve; in most records, active means well fitted activation curve with a large enough effect; inconclusive means small, poorly fitted or top-dose-only effect; inactive means no such curve, though single readings can be large or run the other way. Potencies of inconclusive entries are doubtful fits and often do not repeat.
Assay: qHTS for Activators of Integrin-Mediated Alleviation for Muscular Dystrophy; further: nearly all actives have a fitted effect of over 60% in size;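 on activation: 100% = response of the positive control SU9516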
Details: alpha7betagal myoblasts, beta-gal FDG fluorescence, 48 h; activation: at 38.3 µM (top of the series)
Method in brief: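 Alpha7betagal+/- myoblasts (passage 13) were plated 16-24 hr, then exposed to compounds (1:260 dilution of DMSO stock) for 48 hours at 37C. After MPER lysis, β-galactosidase reporter activity was read as FDG fluorescence (ex 480/em 540) after 30 minutes.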
Potency means the concentration at half of the fitted maximal effect.

Which Potency does the source give for `Cc1ccc(C(=O)OCC(=O)Nc2cccc(Cl)c2C)c(O)c1` here?
The Potency was inconclusive: 10 µM [activator, single point].

With `N#CCCN(Cc1ccccc1)C(=O)CCC(=O)c1ccc(F)cc1` as the compound, how does the “activation” value read?
The value was inactive: 0.772%.

Which Potency does the source give for `CCOC(=O)c1ccccc1NC(=O)c1ccc2nc[nH]c2c1` here?
The Potency was inconclusive: 20 µM [activator, single point].

For `COc1ccc(NS(=O)(=O)c2cc([N+](=O)[O-])ccc2NN=Cc2ccccc2OCC(=O)O)cc1`, which Potency is on record?
Its Potency is inconclusive: 12.6 µM [activator, partial curve, poor fit].

Which Potency does the source give for `NS(=O)(=O)c1ccc(CCNC(=O)Cc2ccc(S(=O)(=O)N3CCCC3)s2)cc1` here?
Its Potency is inconclusive: 5.01 µM [activator, single point].

With `CC(=O)NC1(C(F)(F)F)C(=O)Nc2c1c(=O)[nH]c(=O)n2CCc1ccccc1` (configuration not stated) as the compound, how does the Potency read?
The Potency was inconclusive: 5.01 µM [activator, partial curve, poor fit].

Which activation does the source give for `CC1Cc2ccccc2N1C(=O)COC(=O)c1n[nH]c(=O)c2ccccc12` (configuration not stated) here?
The activation was inconclusive: 36.7% [activator].

With `O=C(CS(=O)(=O)c1ccccc1)Nc1nnc(Cc2ccccc2)s1` as the compound, how does the Potency read?
The Potency was inconclusive: 5.01 µM [activator, single point].

For `COc1ccc(NC(=O)COC(=O)C2CCCCC2)c([N+](=O)[O-])c1`, which Potency is on record?
The Potency was inconclusive: 5.01 µM [activator, single point].

For `O=C(NC(=S)NCc1ccccc1)c1ccc(Br)cc1`, which “activation” value is on record?
Its value is inactive: 2.05%.

Which “activation” value does the source give for `O=c1c2[nH]c3ccccc3c2ncn1CCN1CCNCC1` here?
The value was inactive: 4.13%.

Which Potency does the source give for `O=C(COc1cccnc1[N+](=O)[O-])c1c[nH]c2ccccc12` here?
The Potency was inconclusive: 1.41 µM [activator, partial curve, poor fit].

With `O=C(Nc1cccc(F)c1)Nc1cccc(Cl)c1` as the compound, how does the Potency read?
The Potency was inconclusive: 3.55 µM [activator, single point].

With `Cc1cccc(NC(=O)C(CCC(N)=O)NC(=O)OCc2ccccc2)c1` (configuration not stated) as the compound, how does the Potency read?
The Potency was inconclusive: 12.6 µM [activator, single point].

For `Nc1c(-c2ccsc2)cnc2ncnn12`, which Potency is on record?
Its Potency is inconclusive: 0.316 µM [activator, full curve, poor fit].

With `O=C(NCc1ccccn1)Nc1ccc(F)cc1F` as the compound, how does the Potency read?
The Potency was inconclusive: 10 µM [activator, single point].

With `COc1cc(NC(=O)C2CCC(=O)N2S(=O)(=O)c2ccc(C)cc2)cc(OC)c1` (configuration not stated) as the compound, how does the Potency read?
The Potency was inconclusive: 2.24 µM [activator, full curve, poor fit].

For `Cc1nn(C)c(C(=O)N/N=C/c2ccc(-c3ccccc3)cc2)c1Cl`, which Potency is on record?
Its Potency is inconclusive: 2.82 µM [activator, single point].

Which Potency does the source give for `COc1ccc(-c2cc(C)no2)cc1S(=O)(=O)N1CCCCC1` here?
Its Potency is inconclusive: 10 µM [activator, partial curve, poor fit].

With `CCC1Oc2ccc(C)cc2N(CC(=O)NCCCN2CCOCC2)C1=O` (configuration not stated) as the compound, how does the Potency read?
Its Potency is inconclusive: 11.2 µM [activator, partial curve, poor fit].

With `COC(=O)C1=NNC2C(=O)N(C3CCCCC3)C(=O)C12` (configuration not stated) as the compound, how does the Potency read?
The Potency was inconclusive: 2.51 µM [activator, full curve].

Which Potency does the source give for `O=C(O)COc1ccc2c(c1)O/C(=C\c1ccco1)C2=O` here?
The Potency was inconclusive: 3.16 µM [activator, single point].

With `O=C(COC(=O)CCC(=O)c1cccs1)NC1CC1` as the compound, how does the “activation” value read?
The value was inactive: 6.3%.

Which Potency does the source give for `COc1ccc(NC(=O)c2cc(-c3ccco3)nc3ccccc23)cn1` here?
The Potency was inconclusive: 2.24 µM [activator, full curve, poor fit].

Which “activation” value does the source give for `CCCCN(C(=O)CSCc1c(C)noc1C)c1c(N)n(CCC)c(=O)[nH]c1=O` here?
Its value is inactive: 28.3%.

Which Potency does the source give for `COCCCNC(=O)C1CCC(CNS(=O)(=O)c2ccc3c(c2)N(C(C)=O)CCO3)CC1` (configuration not stated) here?
Its Potency is inconclusive: 3.16 µM [activator, partial curve, poor fit].

For `COC(=O)C(C)Oc1ccc(=O)[nH]n1` (configuration not stated), which Potency is on record?
The Potency was inconclusive: 3.98 µM [activator, single point].

For `O=C(CN1C(=O)c2cccnc2Oc2ccc(Cl)cc21)N1CCOCC1`, which Potency is on record?
Its Potency is inconclusive: 5.01 µM [activator, single point].

Which “activation” value does the source give for `CC(=O)Nc1cccc(Oc2nc(-c3ccccn3)nc3ccccc23)c1` here?
Its value is inactive: 1.07%.

For `Nc1nonc1-n1nnc(C(=O)N/N=C/c2ccco2)c1CSc1ccccc1`, which activation is on record?
The activation was inconclusive: -20.9% [activator].

Which Potency does the source give for `O=C(NCc1ccc2c(c1)OCO2)C(=O)NCC(c1ccco1)N1CCN(c2ccccc2)CC1` (configuration not stated) here?
The Potency was inconclusive: 11.2 µM [activator, partial curve, poor fit].

For `CN(CC(=O)Nc1ccc(Cl)cc1)C(=O)c1ccc(S(=O)(=O)Nc2ccccc2)cc1`, which Potency is on record?
Its Potency is inconclusive: 10 µM [activator, single point].

For `COc1ccccc1OCCCC(=O)Nc1ccc2c(c1)OCCO2`, which Potency is on record?
The Potency was inconclusive: 28.2 µM [activator, single point].

For `COc1ccc(S(=O)(=O)N2CCCC2)cc1NC(=O)c1ccccc1F`, which Potency is on record?
The Potency was inconclusive: 28.2 µM [activator, single point].

For `Cc1nnc2c(N3CCN(CCO)CC3)nc3ccccc3n12`, which Potency is on record?
The Potency was inconclusive: 1 µM [activator, single point].

For `CC(=O)c1c(C)oc2ccc(N(C(C)=O)S(=O)(=O)c3cccc([N+](=O)[O-])c3)cc12`, which Potency is on record?
Its Potency is inconclusive: 5.01 µM [activator, single point].

With `COc1ccc(O)c(/C=N/NC(=O)c2cc(=O)[nH]c3ccccc23)c1` as the compound, how does the Potency read?
Its Potency is active: 5.62 µM.

With `COC(=O)CN1C(=O)C(C)(C)Oc2ccc(C(=O)NC3CCCC3)cc21` as the compound, how does the Potency read?
Its Potency is inconclusive: 28.2 µM [activator, single point].

Which Potency does the source give for `Cc1ccc(/C=C/C(=O)N2CCCC(C)C2)cc1` (configuration not stated) here?
The Potency was inconclusive: 28.2 µM [activator, single point].

Which “activation” value does the source give for `CC(=O)N1Cc2ccccc2C(C)CC12CCCCC2` (configuration not stated) here?
Its value is inactive: -5.07%.

For `OCc1nc2ccccc2n1Cc1c(F)cccc1Cl`, which Potency is on record?
The Potency was inconclusive: 28.2 µM [activator, single point].

With `O=C1c2ccc([N+](=O)[O-])cc2C(=O)N1c1ccc([N+](=O)[O-])cn1` as the compound, how does the Potency read?
Its Potency is inconclusive: 0.501 µM [activator, full curve, poor fit].
